Results from article PMC12572126.

By UniProt entry, the sequences of proteins in these tests, tags left out. Where a name states a change or a piece, a line headed by the entry shows the natural chain unless it says otherwise.
UniProt G0S5M5: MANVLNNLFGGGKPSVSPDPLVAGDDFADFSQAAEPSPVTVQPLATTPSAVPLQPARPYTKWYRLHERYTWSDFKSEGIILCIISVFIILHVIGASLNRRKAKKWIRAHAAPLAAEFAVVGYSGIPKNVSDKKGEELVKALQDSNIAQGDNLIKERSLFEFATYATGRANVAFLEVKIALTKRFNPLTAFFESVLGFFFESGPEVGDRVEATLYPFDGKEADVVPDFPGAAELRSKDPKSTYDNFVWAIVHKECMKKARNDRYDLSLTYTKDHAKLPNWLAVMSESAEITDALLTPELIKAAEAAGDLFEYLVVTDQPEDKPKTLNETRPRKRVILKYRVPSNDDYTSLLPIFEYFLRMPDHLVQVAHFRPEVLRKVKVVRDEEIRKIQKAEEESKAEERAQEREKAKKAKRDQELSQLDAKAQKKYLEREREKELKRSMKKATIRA

Legend:
[1] = target: Chaetomium thermophilum CCDC47 with a FLAG tag (Chaetomium thermophilum) (UniProt G0S5M5); assay: cryo-EM structure; single-particle cryo-EM of the ribosome-bound SND3 translocon purified natively by FLAG-IP of ctCCDC47-FLAG and ribosome pelleting, in 0.25% digitonin; overall 2.2 Å, 3-6 Å in the micelle
[2] = target: Chaetomium thermophilum CCDC47 with a FLAG tag (Chaetomium thermophilum) (UniProt G0S5M5); assay: co-IP; FLAG-IP of ctCCDC47-FLAG on anti-FLAG M2 affinity gel from membranes solubilised in 1.5% digitonin, eluted with 3xFLAG peptide; Coomassie staining and western blotting

binding [1]: binds | binding [2]: binds
Substance: Chaetomium thermophilum SND3 with a C-terminal TwinStrep tag (from UniProt G0RYQ7)

Results are given in words; binding and its absence hold for the method and conditions named. Binding can be weak; no strength is given. For some assays here: In cells and extracts the contact can be indirect.
